# Where a name gives a salt, the structure may show the parent alone. The list shows a part of the results. The calls rarely recur for the same compound in another form.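 Kinases, fused to nanoluciferase, were expressed in K562 cells; luminescence was measured every 4 h from 2 to 18 h as percent of control (DMSO = 100%, positive control = 0%). A time point is decreased if signal falls significantly (2 sigma). Hits were called by the authors by a rule that is not shown; the count of time points alone does not decide it.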
# Amino acid sequences for entries named in this document (tags omitted). A change or cut given only in a name is not applied to a line headed by its entry.
# UniProt P00519, whole entry: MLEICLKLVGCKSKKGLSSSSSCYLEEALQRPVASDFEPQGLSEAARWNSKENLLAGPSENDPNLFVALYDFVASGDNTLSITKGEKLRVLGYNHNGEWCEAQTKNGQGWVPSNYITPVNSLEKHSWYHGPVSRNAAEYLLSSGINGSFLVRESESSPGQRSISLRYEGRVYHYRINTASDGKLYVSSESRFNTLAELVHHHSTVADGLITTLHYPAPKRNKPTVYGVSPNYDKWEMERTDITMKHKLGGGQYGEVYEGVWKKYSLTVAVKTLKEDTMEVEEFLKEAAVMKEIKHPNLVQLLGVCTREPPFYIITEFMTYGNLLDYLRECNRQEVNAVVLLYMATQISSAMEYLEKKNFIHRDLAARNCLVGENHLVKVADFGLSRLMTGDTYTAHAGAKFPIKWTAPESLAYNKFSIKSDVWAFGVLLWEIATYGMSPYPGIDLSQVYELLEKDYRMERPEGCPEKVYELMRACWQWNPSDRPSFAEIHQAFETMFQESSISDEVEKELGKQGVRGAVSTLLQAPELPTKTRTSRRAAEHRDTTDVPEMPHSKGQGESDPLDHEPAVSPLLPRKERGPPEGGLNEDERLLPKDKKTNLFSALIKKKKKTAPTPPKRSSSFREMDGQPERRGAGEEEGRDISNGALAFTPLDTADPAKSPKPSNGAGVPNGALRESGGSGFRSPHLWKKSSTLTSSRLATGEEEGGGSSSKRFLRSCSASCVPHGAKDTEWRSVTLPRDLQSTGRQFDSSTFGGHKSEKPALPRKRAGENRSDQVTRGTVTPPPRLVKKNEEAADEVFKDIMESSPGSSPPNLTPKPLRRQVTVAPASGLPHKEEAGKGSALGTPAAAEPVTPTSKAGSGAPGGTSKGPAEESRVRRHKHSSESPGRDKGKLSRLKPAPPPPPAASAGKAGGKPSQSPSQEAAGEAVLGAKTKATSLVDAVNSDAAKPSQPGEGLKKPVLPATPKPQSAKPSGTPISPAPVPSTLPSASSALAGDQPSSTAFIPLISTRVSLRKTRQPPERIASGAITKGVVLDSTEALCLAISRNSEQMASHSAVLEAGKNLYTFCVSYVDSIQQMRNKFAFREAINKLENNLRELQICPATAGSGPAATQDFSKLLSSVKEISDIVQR
# UniProt P31749: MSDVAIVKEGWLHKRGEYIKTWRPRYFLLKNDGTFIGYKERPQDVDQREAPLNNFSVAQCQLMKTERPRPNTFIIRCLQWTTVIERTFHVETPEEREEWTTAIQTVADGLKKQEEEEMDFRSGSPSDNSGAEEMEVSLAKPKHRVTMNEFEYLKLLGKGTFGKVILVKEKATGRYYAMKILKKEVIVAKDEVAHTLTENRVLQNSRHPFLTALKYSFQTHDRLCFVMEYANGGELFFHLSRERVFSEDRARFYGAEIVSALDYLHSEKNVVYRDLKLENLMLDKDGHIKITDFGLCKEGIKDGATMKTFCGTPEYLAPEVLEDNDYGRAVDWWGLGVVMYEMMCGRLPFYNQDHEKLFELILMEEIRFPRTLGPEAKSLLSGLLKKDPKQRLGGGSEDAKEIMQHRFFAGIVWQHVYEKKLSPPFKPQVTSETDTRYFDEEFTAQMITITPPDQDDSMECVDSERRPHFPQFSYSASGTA
# UniProt Q9UM73: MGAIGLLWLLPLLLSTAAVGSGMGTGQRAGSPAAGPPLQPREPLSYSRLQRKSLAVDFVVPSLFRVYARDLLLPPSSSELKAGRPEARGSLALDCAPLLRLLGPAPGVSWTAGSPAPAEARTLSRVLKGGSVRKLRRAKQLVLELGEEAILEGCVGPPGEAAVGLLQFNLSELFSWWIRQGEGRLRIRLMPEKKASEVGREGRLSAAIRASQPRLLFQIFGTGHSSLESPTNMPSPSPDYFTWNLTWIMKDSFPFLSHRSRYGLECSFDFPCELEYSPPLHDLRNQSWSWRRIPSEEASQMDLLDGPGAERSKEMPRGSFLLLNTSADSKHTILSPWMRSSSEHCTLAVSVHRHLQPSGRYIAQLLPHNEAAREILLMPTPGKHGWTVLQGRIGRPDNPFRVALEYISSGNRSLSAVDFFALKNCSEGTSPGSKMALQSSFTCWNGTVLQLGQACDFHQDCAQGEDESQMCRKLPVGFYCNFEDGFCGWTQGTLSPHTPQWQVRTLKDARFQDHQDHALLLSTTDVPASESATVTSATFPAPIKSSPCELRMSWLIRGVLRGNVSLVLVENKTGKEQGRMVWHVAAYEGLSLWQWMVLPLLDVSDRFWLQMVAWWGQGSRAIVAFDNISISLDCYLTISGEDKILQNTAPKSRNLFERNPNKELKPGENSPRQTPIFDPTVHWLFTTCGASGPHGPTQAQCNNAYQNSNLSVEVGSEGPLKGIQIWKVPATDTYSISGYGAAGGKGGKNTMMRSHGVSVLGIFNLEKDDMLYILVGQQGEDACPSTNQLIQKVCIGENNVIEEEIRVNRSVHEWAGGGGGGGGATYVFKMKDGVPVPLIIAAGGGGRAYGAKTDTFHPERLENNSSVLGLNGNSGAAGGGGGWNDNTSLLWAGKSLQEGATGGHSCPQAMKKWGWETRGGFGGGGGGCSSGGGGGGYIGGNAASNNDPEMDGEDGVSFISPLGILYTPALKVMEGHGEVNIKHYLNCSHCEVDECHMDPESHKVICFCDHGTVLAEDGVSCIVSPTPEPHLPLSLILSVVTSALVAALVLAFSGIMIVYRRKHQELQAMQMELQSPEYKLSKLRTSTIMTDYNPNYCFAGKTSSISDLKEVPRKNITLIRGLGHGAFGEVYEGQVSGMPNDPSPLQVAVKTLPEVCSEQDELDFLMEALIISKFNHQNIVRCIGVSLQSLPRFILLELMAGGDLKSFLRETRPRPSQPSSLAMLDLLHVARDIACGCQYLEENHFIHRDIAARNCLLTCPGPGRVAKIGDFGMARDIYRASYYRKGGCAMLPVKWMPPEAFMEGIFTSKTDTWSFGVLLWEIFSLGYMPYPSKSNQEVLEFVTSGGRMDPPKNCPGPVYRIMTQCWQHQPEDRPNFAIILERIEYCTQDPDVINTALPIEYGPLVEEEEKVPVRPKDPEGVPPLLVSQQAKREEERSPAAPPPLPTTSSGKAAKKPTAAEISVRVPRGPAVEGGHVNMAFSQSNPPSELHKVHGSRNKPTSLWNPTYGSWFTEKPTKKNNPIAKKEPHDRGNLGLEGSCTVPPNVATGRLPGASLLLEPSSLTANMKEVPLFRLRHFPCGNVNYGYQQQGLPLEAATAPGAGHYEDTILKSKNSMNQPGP
# UniProt P10398: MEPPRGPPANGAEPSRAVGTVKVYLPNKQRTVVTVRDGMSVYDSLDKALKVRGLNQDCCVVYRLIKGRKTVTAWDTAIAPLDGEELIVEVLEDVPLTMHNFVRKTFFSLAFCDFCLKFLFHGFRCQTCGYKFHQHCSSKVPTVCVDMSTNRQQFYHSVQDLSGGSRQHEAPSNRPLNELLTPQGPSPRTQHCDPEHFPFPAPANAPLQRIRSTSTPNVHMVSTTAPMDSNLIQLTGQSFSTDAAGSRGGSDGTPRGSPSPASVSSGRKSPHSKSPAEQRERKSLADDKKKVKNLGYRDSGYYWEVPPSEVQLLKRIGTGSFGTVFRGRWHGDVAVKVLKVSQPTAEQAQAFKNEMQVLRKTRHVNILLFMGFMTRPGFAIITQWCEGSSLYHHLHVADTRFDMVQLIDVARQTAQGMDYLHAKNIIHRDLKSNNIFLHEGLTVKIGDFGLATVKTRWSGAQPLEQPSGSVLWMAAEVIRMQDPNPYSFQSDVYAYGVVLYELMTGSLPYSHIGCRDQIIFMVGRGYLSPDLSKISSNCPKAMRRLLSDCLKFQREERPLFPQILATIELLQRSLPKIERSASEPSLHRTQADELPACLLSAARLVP
# UniProt O14965: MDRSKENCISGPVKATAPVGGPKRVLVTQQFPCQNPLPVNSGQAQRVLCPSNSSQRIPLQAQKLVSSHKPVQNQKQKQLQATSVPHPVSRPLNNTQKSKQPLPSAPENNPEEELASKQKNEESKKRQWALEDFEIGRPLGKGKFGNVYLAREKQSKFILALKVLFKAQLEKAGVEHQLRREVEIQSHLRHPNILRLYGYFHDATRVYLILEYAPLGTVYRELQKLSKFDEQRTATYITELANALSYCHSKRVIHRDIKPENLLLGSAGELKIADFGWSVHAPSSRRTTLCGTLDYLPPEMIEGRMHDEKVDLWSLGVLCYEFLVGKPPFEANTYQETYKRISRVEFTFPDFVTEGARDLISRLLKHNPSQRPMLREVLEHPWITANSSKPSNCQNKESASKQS
# UniProt Q96GD4, whole entry: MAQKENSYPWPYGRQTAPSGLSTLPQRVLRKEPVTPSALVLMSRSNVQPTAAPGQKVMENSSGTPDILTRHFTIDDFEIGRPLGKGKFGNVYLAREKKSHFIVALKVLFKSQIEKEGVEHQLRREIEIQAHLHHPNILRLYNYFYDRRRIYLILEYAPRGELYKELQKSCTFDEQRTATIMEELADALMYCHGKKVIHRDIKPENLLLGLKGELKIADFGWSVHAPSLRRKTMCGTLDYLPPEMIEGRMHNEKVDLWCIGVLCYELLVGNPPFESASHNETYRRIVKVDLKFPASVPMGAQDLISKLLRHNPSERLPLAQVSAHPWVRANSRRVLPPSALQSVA
# UniProt P51451: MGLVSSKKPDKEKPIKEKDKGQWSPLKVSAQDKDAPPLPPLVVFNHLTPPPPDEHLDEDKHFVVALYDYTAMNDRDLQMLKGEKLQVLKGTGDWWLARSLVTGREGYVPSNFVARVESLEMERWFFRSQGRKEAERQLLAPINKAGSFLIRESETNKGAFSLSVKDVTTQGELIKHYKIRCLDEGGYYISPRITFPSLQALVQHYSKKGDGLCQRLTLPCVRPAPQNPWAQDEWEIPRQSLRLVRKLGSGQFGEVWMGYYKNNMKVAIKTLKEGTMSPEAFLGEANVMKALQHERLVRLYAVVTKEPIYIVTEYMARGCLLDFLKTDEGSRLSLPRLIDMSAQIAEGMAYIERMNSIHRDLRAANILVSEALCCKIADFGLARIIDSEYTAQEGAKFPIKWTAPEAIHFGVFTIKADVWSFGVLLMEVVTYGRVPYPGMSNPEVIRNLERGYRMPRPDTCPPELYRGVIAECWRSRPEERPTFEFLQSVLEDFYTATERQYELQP
# UniProt P51813: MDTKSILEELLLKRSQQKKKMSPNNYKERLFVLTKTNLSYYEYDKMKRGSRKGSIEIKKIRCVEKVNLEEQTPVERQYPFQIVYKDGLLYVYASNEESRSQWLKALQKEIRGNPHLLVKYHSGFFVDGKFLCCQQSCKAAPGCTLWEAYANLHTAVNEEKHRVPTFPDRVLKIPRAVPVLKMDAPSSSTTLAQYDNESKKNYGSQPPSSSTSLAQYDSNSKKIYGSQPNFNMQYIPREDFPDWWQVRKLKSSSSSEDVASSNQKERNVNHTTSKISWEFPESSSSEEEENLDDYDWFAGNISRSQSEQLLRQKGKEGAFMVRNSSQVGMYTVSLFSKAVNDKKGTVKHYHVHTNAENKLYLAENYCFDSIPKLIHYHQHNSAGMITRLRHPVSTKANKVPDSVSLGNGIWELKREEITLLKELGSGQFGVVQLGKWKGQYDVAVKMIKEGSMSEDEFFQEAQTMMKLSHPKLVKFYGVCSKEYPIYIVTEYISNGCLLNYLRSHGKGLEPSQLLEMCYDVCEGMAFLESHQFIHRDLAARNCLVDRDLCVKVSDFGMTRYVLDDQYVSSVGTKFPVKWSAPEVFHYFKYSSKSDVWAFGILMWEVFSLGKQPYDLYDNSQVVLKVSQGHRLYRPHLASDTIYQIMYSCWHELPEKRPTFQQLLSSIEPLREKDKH
# UniProt P15056, whole entry, looked up: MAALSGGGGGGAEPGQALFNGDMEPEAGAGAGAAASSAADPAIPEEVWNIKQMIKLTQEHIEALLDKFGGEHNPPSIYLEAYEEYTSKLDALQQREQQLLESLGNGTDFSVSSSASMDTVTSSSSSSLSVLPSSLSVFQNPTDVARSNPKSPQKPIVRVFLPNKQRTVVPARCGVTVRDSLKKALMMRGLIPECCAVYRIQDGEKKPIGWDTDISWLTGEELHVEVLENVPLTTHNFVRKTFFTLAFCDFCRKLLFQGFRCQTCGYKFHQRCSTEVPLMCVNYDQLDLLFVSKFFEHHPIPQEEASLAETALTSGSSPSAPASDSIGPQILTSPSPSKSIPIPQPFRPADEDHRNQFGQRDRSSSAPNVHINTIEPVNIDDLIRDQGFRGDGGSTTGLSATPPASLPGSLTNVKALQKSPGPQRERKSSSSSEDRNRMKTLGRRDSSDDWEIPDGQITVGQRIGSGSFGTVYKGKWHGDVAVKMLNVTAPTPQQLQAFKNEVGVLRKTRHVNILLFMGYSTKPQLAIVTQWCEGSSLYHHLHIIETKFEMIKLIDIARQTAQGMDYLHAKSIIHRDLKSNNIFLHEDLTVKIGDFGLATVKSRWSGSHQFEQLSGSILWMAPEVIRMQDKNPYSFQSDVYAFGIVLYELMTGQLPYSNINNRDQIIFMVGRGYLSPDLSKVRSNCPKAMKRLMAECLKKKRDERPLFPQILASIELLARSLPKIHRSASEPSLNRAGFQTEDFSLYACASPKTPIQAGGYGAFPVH
# Experiments:
# Assay in all cases: kinase-Nluc reporter destabilization hit call (1 = scored as downregulated) (binary); higher = compound decreases kinase abundance
# Conditions in all cases: K562; 2-18 h
# [1] = biological target: ABL1 (UniProt P00519)
# [2] = biological target: AKT1 (UniProt P31749)
# [3] = biological target: ALK (UniProt Q9UM73)
# [4] = biological target: ARAF (UniProt P10398)
# [5] = biological target: AURKA (UniProt O14965)
# [6] = biological target: AURKB (UniProt Q96GD4)
# [7] = biological target: AURKC (UniProt Q9UQB9)
# [8] = biological target: BLK (UniProt P51451)
# [9] = biological target: BMX (UniProt P51813)
# [10] = biological target: BRAF (UniProt P15056)
Compound,kinase-Nluc reporter destabilization hit call [1],kinase-Nluc reporter destabilization hit call [2],kinase-Nluc reporter destabilization hit call [3],kinase-Nluc reporter destabilization hit call [4],kinase-Nluc reporter destabilization hit call [5],kinase-Nluc reporter destabilization hit call [6],kinase-Nluc reporter destabilization hit call [7],kinase-Nluc reporter destabilization hit call [8],kinase-Nluc reporter destabilization hit call [9],kinase-Nluc reporter destabilization hit call [10]
C=C[C@H]1[C@H](O[C@@H]2O[C@H](CO)[C@@H](O)[C@H](O)[C@H]2OC(=O)c2c(O)cc(O)cc2-c2cccc(O)c2)OC=C2C(=O)OCC[C@H]21 [Amarogentin] (10 µM),inactive: 0,inactive: 0,inactive: 0,inactive: 0,inactive: 0,inactive: 0,inactive: 0,inactive: 0,inactive: 0,inactive: 0
CC[C@@H](N)CNc1ccnc(-c2cc(-c3cnn(C)c3)ccc2O)n1 (2.5 µM),inactive: 0,inactive: 0,inactive: 0,inactive: 0,inactive: 0,inactive: 0,inactive: 0,inactive: 0,inactive: 0,inactive: 0
Cn1cc(-c2cc3c(N4CCN(c5ncc([C@@](C)(N)c6ccc(F)cc6)cn5)CC4)ncnn3c2)cn1 [Avapritinib] (2.5 µM),inactive: 0,inactive: 0,inactive: 0,inactive: 0,inactive: 0,inactive: 0,inactive: 0,inactive: 0,inactive: 0,inactive: 0
COc1ccc2c(c1OC)OC1c3ccc(O)cc3OCC21 (stereo not given) [Methylnissolin] (10 µM),inactive: 0,inactive: 0,inactive: 0,inactive: 0,inactive: 0,inactive: 0,inactive: 0,inactive: 0,inactive: 0,inactive: 0
CC(C)N(C)c1nc2cc(C(=O)O)ccc2nc1-c1ccc(F)cc1 (10 µM),inactive: 0,inactive: 0,inactive: 0,inactive: 0,inactive: 0,inactive: 0,inactive: 0,inactive: 0,inactive: 0,inactive: 0
O=C1NC(=O)C(c2cn(-c3ccccc3)nc2-c2ccc(F)cc2)N1 (stereo not given) (10 µM),inactive: 0,inactive: 0,inactive: 0,inactive: 0,inactive: 0,inactive: 0,inactive: 0,inactive: 0,inactive: 0,inactive: 0
CC(C)Oc1ccc(-c2cnc3c(-c4ccnc5ccccc45)cnn3c2)cc1 (10 µM),inactive: 0,inactive: 0,inactive: 0,inactive: 0,inactive: 0,inactive: 0,inactive: 0,inactive: 0,inactive: 0,inactive: 0
[O-][n+]1cccc(-c2nc3c(Cl)cccc3cc2[C@@H](Nc2ncnc3cccnc23)C(F)(F)F)c1 [Seletalisib] (10 µM),inactive: 0,inactive: 0,inactive: 0,inactive: 0,inactive: 0,inactive: 0,inactive: 0,inactive: 0,inactive: 0,inactive: 0
C=CC(=O)Nc1cccc(-n2c(=O)cc(C)c3cnc(Nc4ccc(OCCN(C)C)cc4OC)nc32)c1 (10 µM),inactive: 0,inactive: 0,inactive: 0,inactive: 0,inactive: 0,inactive: 0,inactive: 0,inactive: 0,inactive: 0,inactive: 0
CN1C(=O)NC(Cc2c[nH]c3c(Cl)cccc23)C1=O (racemic) [Necrostatin 2 (racemate)] (10 µM),inactive: 0,inactive: 0,inactive: 0,inactive: 0,inactive: 0,inactive: 0,inactive: 0,inactive: 0,inactive: 0,inactive: 0
C[C@@H]1COCCN1c1cc(C2([S@](C)(=N)=O)CC2)nc(-c2cc[nH]c3nccc2-3)n1 [Ceralasertib] (2.5 µM),inactive: 0,inactive: 0,inactive: 0,inactive: 0,inactive: 0,inactive: 0,inactive: 0,inactive: 0,inactive: 0,inactive: 0
O=C1NC(=O)/C(=C/c2ccc(-c3ccc(F)cc3O)o2)S1 (10 µM),inactive: 0,inactive: 0,inactive: 0,inactive: 0,inactive: 0,inactive: 0,inactive: 0,inactive: 0,inactive: 0,inactive: 0
C[C@@H]1CCc2ncc(F)cc2[C@H]2CCCN2c2ccn3ncc(c3n2)C(=O)N1 [Selitrectinib] (10 µM),inactive: 0,inactive: 0,inactive: 0,inactive: 0,inactive: 0,inactive: 0,inactive: 0,inactive: 0,inactive: 0,inactive: 0
"CN1CC[C@H](c2c(O)cc(O)c3c(=O)cc(-c4ccc(C(F)(F)F)cc4Cl)oc23)[C@H]1CO [(2S,3R)-Voruciclib (hydrochloride)] (2.5 µM)",inactive: 0,inactive: 0,inactive: 0,inactive: 0,inactive: 0,inactive: 0,inactive: 0,inactive: 0,inactive: 0,inactive: 0
CN(CC(=O)N(Cc1ccc(C2CCCCC2)cc1)c1ccc(C(=O)O)c(O)c1)S(=O)(=O)c1c(F)c(F)c(F)c(F)c1F (2.5 µM),inactive: 0,inactive: 0,inactive: 0,inactive: 0,inactive: 0,inactive: 0,inactive: 0,active: 1,inactive: 0,inactive: 0
c1ccc(-c2nn3c(c2-c2ccnc4cc(OCCN5CCOCC5)ccc24)CCC3)nc1 (10 µM),inactive: 0,inactive: 0,inactive: 0,inactive: 0,inactive: 0,inactive: 0,inactive: 0,inactive: 0,inactive: 0,inactive: 0
NS(=O)(=O)c1ccc(N2N=C(c3ccccc3)CC2c2ccccc2)cc1 (stereo not given) (10 µM),inactive: 0,inactive: 0,inactive: 0,inactive: 0,inactive: 0,inactive: 0,inactive: 0,inactive: 0,inactive: 0,inactive: 0
CCOC(=O)c1c2c3c(cccc3[nH]c1=O)C(=O)c1ccccc1-2 (10 µM),inactive: 0,inactive: 0,inactive: 0,inactive: 0,inactive: 0,inactive: 0,inactive: 0,inactive: 0,inactive: 0,inactive: 0
O=[N+]([O-])c1ccc(Sc2cccc[n+]2[O-])c2nonc12 (2.5 µM),inactive: 0,inactive: 0,inactive: 0,inactive: 0,inactive: 0,inactive: 0,inactive: 0,inactive: 0,inactive: 0,inactive: 0
CCCNC(=O)c1cn2ncnc(Nc3cc(C(=O)NC4CC4)ccc3C)c2c1C (10 µM),inactive: 0,inactive: 0,inactive: 0,inactive: 0,inactive: 0,inactive: 0,inactive: 0,inactive: 0,inactive: 0,inactive: 0
O=C(O)c1ccc(N2N=C(Cc3ccccc3)C(=Cc3ccc(-c4ccccc4F)o3)C2=O)cc1 (10 µM),inactive: 0,inactive: 0,inactive: 0,inactive: 0,inactive: 0,inactive: 0,inactive: 0,inactive: 0,inactive: 0,inactive: 0
CC1=C(C(=O)Nc2ccc3[nH]ncc3c2)C(c2ccc(F)cc2)NC(=O)N1 (stereo not given) (10 µM),inactive: 0,inactive: 0,inactive: 0,inactive: 0,inactive: 0,inactive: 0,inactive: 0,inactive: 0,inactive: 0,inactive: 0
CCC(C)(C)C(=O)N(O)Cc1ccccc1 (10 µM),inactive: 0,inactive: 0,inactive: 0,inactive: 0,inactive: 0,inactive: 0,inactive: 0,inactive: 0,inactive: 0,inactive: 0
c1ccc(-c2oc3ncnc(NC[C@@H]4CCCO4)c3c2-c2ccccc2)cc1 (2.5 µM),inactive: 0,inactive: 0,inactive: 0,inactive: 0,inactive: 0,inactive: 0,inactive: 0,inactive: 0,inactive: 0,inactive: 0
CN(C)Cc1cccc(N=C(c2ccccc2)c2c(O)[nH]c3cc(C(N)=O)ccc23)c1 (10 µM),inactive: 0,inactive: 0,inactive: 0,inactive: 0,inactive: 0,inactive: 0,inactive: 0,inactive: 0,inactive: 0,inactive: 0
C[C@H]1Cc2ccccc2N1C(=O)Cc1nc(N2CCOCC2)cc(=O)[nH]1 (2.5 µM),inactive: 0,inactive: 0,inactive: 0,inactive: 0,inactive: 0,inactive: 0,inactive: 0,inactive: 0,inactive: 0,inactive: 0
COc1nc(-c2cccc3c2OCCO3)ccc1Nc1ccc(CN(C)C)cc1 [RAS inhibitor Abd-7] (10 µM),inactive: 0,inactive: 0,inactive: 0,inactive: 0,inactive: 0,inactive: 0,inactive: 0,inactive: 0,inactive: 0,inactive: 0
Nc1nc2cc(-c3ccc4ncc(C(=O)N5CCOCC5)n4c3)ccc2o1 [Serabelisib] (10 µM),inactive: 0,inactive: 0,inactive: 0,inactive: 0,inactive: 0,inactive: 0,inactive: 0,inactive: 0,inactive: 0,inactive: 0
COc1ccccc1/C=C1\C(=O)Nc2ccccc21 (10 µM),inactive: 0,inactive: 0,inactive: 0,inactive: 0,inactive: 0,inactive: 0,inactive: 0,inactive: 0,inactive: 0,inactive: 0

# 2 entries from above, with tabs.
Compound	kinase-Nluc reporter destabilization hit call [1]	kinase-Nluc reporter destabilization hit call [2]	kinase-Nluc reporter destabilization hit call [3]	kinase-Nluc reporter destabilization hit call [4]	kinase-Nluc reporter destabilization hit call [5]	kinase-Nluc reporter destabilization hit call [6]	kinase-Nluc reporter destabilization hit call [7]	kinase-Nluc reporter destabilization hit call [8]	kinase-Nluc reporter destabilization hit call [9]	kinase-Nluc reporter destabilization hit call [10]
CN(CC(=O)N(Cc1ccc(C2CCCCC2)cc1)c1ccc(C(=O)O)c(O)c1)S(=O)(=O)c1c(F)c(F)c(F)c(F)c1F (2.5 µM)	inactive: 0	inactive: 0	inactive: 0	inactive: 0	inactive: 0	inactive: 0	inactive: 0	active: 1	inactive: 0	inactive: 0
c1ccc(-c2nn3c(c2-c2ccnc4cc(OCCN5CCOCC5)ccc24)CCC3)nc1 (10 µM)	inactive: 0	inactive: 0	inactive: 0	inactive: 0	inactive: 0	inactive: 0	inactive: 0	inactive: 0	inactive: 0	inactive: 0

# Reference: the supplement of paper PMC12823440, “Inhibitors supercharge kinase turnover through native proteolytic circuits” (Nature, 2025)
